In patent US20240131158A1 (Takeda / Millennium, published 2024):
Results are given in words; binding and its absence hold for the method and conditions named. Some binding calls cover weakened binding; strength is not graded here. Values belong to the binder of their own block, whether it stands above or below them.

Amino acid sequences for entries named in this document (tags omitted). Residues count along the entry.
UniProt P37173, residues 23-159: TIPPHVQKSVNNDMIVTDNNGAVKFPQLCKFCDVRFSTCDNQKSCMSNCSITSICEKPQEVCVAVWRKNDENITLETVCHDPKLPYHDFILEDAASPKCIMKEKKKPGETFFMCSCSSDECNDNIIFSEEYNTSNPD

Tests used:
hTGFβR2-Fc [1] = biological target: T1, hTGFβR2-Fc (human, UniProt P37173 23-159); assay: ELISA (figure legend)
T1 construct: Bought (RnD Systems); also called TGFbR2-Fc; human recombinant TGFbR2-Fc protein; not shown: Fc part of the bought fusion protein
Description: (§1) Supernatant from TGF-β modulating CAR-T cells were assayed by ELISA to detect anti-TGF-β and anti-TGFβR2 antibodies. Maxisorp 96 well plates were coated with recombinant human TGF-β […] or hTGFβR2-Fc (0.1 mg/ml; RnD System) in 100 μl coating buffer overnight at 4° C. Plates were washed with 1× wash buffer and blocked for 1 hour with reagent diluent at room temperature. CAR-T supernatant, recombinant TGFβR2-flag, or recombinant TGF-3-flag antibody was added and incubated for 2 hours at room temperature.
(§2) After another washing step, HRP-conjugated flag-tag antibody was added and incubated for 30 minutes at room temperature. Plates were washed and TMB substrate was added for 10-20 minutes. The reaction was stopped using Stop reagent and plates were read at 450 nm using a Pherastar Plate reader. ELISA using coated TGF-b detected high levels of TGF-b scFv VH-VL1 and TGF-b scFv VH-VL2 as compared to TGF-b scFv VL-VH using anti-flag tag HRP antibodies for binder detection (FIG. 3A). ELISA using coated TGFbR2-Fc detected high levels of TGFbR2 scFv VH-VL, TGFbR2 scFv VL-VH and hTGFbR2 VH1 from human CAR-T but was unable to detect mTGFbR2 VH1 (FIG. 3B). […]
(§3) Supernatant was harvested two days after transduction and frozen at −80′C until used for ELISA. […] Binding was detected using anti-flag HRP antibodies and the respective substrate. […]

hTGFβR2-Fc [2] = biological target: T1, hTGFβR2-Fc; assay: ELISA, human recombinant TGFbR2-Fc as capture, mouse CAR-T supernatant, anti-flag HRP detection
Description: as §1, §2, §3

- binding (hTGFβR2-Fc [1]): binds
- binding (hTGFβR2-Fc [2]): binds
B1: hTGFbR2 VH3 G4S dimer (VHH)
chain: EVQLLESGGGLVQPGGSLRLSCAASGFTFGTDQMWWVRQAPGKGLEFVSRIDSPGGRTYYANSVKGRFTISRDNSKNTLYLQMNSLRAEDTAVYYCAKRQPAGVSGKYVDYWGQGTLVTVSSGGGGSEVQLLESGGGLVQPGGSLRLSCAASGFTFGTDQMWWVRQAPGKGLEFVSRIDSPGGRTYYANSVKGRFTISRDNSKNTLYLQMNSLRAEDTAVYYCAKRQPAGVSGKYVDYWGQGTLVTVSS
notes: It is built here from its name (VH3 - G4S - VH3); Flag-tagged; also called hTGFbR2-VH3 dimer

- binding (hTGFβR2-Fc [1]): binds
- binding (hTGFβR2-Fc [2]): binds
B2: hTGFbR2 VH2 G4S dimer (VHH)
chain: EVQLLESGGGLVQPGGSLRLSCAASGSTFTEYRMWWVRQAPGKGLEWVSAIEPIGHRTYYANSVRGRFTISRDNSKNTLYLQMNSLRAEDTAVYYCAKQAPGEKWARRWDLDYWGQGTLVTVSSGGGGSEVQLLESGGGLVQPGGSLRLSCAASGSTFTEYRMWWVRQAPGKGLEWVSAIEPIGHRTYYANSVRGRFTISRDNSKNTLYLQMNSLRAEDTAVYYCAKQAPGEKWARRWDLDYWGQGTLVTVSS
notes: Flag-tagged; also called hTGFbR2-VH2 dimer
